Earlier results in US20090203577A1 (EXELIXIS, INC., priority 2005, published 2009).
At least one structure is not confirmed: it was looked up by name or label, or the drawing left a doubt.

System: patients with hypertriglyceridemia
Details: treatment with the bile acid; cited from earlier work

## C[C@H](CCC(=O)O)[C@H]1CC[C@H]2[C@@H]3[C@@H](O)C[C@@H]4C[C@H](O)CC[C@]4(C)[C@H]3CC[C@]12C [UDCA, Ursodeoxycholic acid]
  effect on plasma lipids: lack of effect
